# Patent US7838496B2, “Template-fixed peptidomimetics as medicaments against HIV and cancer” (Polyphor AG/Ltd., priority 2003, dated 2010)
# Part of at least one peptide drawing is inferred or uncertain, most often the ends. Where a SMILES comes first, the peptide text is derived from it. Bridges are numbered along the chain shown (N, C = ends). [ ]: non-standard residue; d: D form. 2Nal = N[C@@H](Cc1ccc2ccccc2c1)C(=O)O; Cit = NC(=O)NCCC[C@H](N)C(=O)O
# Tested on: 'CCR5' cells / Hut/4-3 cells co-cultivation
# Assay: FIGS-Assay (co-cultivated cell cultures, beta-galactosidase/ONPG read-out)
# Type: cell-based
# Settings: 48 hours of co-cultivation
# Method: The assay was performed according to ref. 5, below. Stock dilutions of the peptides (10 mM) were prepared by dissolving in 10 mM Tris-HCl at room temperature. Stock solutions were kept at +4° C., light protected. Working dilutions were prepared extemporaneously by serial dilution in Phosphate Buffered Saline (PBS) and added in a final volume of 10 μL directly to the cell cultures. After 48 hours of co-cultivation the cultures were rinsed with PBS and then exposed to glutaraldehyde/formaldehyde (0.2%/2%) in PBS for five minutes. For photometric quantification the fixed cultures were subsequently incubated with ortho-nitro-phenyl-galactopyranoside (ONPG) as a O-galactosidase substrate, which was enzymatically converted into the chromophore ortho-nitrophenol (ONP). The read out is directly obtained by measuring optical density of wells at 405 nm in an IEMS 96 well-plate reader.
# All fine chemicals came from Merck (D)armstadt, Germany).
smiles,measurement,value
N=C(N)NCCC[C@H](NC(=O)[C@@H]1CSSC[C@H](NC(=O)[C@H](Cc2ccc3ccccc3c2)NC(=O)[C@H](CCCNC(=N)N)NC(=O)[C@@H](N)CCCNC(=N)N)C(=O)N[C@@H](Cc2ccc(O)cc2)C(=O)N[C@@H](CCCCN)C(=O)N[C@H](CCCCN)C(=O)N2CCC[C@H]2C(=O)N[C@@H](Cc2ccc(O)cc2)C(=O)N[C@@H](CCCNC(N)=O)C(=O)N1)C(N)=O [Example 1] (H-RR[2Nal]CYK[dK]PY[Cit]CR-NH2; disulfide 4-11; N-terminus assumed),FIGS % inhibition at 200 nM,12.9%
